Measured values from publication PMC12508481.
No constants are given. Whether binding was seen depends on the method and setting. Binding seen in cells or lysates may run through a third protein. Some results given as binding are weak or reduced against the parent protein; the word gives no strength.

Sequences of proteins named here, by UniProt entry; tags and fusion partners are left off.
UniProt Q9UJV9: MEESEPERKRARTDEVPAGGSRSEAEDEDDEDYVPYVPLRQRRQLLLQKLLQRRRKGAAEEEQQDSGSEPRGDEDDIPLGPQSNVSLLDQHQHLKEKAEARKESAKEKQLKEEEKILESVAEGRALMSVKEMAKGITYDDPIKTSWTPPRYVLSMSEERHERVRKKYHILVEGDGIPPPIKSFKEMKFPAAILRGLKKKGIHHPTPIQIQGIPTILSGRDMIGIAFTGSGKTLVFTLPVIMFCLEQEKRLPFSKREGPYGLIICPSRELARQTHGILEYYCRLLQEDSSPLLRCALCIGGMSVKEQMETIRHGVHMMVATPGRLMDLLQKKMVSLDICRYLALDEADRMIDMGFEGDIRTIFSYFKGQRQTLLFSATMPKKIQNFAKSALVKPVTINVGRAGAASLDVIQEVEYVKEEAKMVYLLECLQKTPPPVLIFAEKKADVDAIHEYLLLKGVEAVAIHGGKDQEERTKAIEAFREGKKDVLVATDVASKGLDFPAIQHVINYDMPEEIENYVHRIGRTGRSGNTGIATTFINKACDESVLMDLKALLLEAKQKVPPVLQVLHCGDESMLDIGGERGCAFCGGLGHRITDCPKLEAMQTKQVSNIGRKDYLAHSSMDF

Key:
[1] = target: T1, CGG triplet repeat binding protein 1 (human (endogenous in U-2OS)) (UniProt Q9UFW8); test: co-IP; IP of endogenous CGGBP1 from U-2OS lysate, control IgG-IP, Western blot for DHX15, DDX41, RNAPII; lysates with or without benzonase (1250 units/mL, 3 h, 4 °C)
T1 sequence: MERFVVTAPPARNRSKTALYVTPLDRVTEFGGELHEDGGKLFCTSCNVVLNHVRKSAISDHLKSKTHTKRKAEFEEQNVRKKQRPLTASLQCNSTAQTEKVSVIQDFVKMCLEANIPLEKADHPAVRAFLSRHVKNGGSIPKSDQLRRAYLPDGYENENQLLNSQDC

[2] = target: DDX41, ATP-dependent DEAD-box DNA:RNA helicase (human (endogenous in U-2OS)) (UniProt Q9UJV9); test: co-IP; reverse co-IP: IP of endogenous DDX41 or DHX15 from U-2OS whole cell lysates with and without benzonase, Western blot for CGGBP1

With “DDX41, ATP-dependent DEAD-box DNA:RNA helicase (from UniProt Q9UJV9 1-622) (enzyme)” the binding [1] was “binds”.

B1: CGG triplet repeat binding protein 1 (protein, UniProt Q9UFW8 1-167)
chain: MERFVVTAPPARNRSKTALYVTPLDRVTEFGGELHEDGGKLFCTSCNVVLNHVRKSAISDHLKSKTHTKRKAEFEEQNVRKKQRPLTASLQCNSTAQTEKVSVIQDFVKMCLEANIPLEKADHPAVRAFLSRHVKNGGSIPKSDQLRRAYLPDGYENENQLLNSQDC
With B1 the binding [2] was “binds”.
